PubChem BioAssay AID1159584 – Peter MacCallum Cancer Centre, 2016
The whole screen tested about 18,000 reagents; this is an unselected part. Further read-outs or replicates are left out here. Not stated in the record: the amount of reagent, the time to read-out.

Test: 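Genes that CDH1-null MCF10A cells selectively depend on to survive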 (primary screen)
Cell system: human MCF10A breast epithelial cells, parental and CDH1-null
Reagent: siRNA against human genes
Measurement: 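ATP luminescence (CellTiter-Glo) viability per line relative to mean mock wells over all plates, and the ratio of CDH1-null to parental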
Direction: CDH1-null / parental viability ratio: higher = CDH1-null cells survive relatively better than parental; CDH1-null viability vs mock: higher = more viable CDH1-null cells

OAS2 (2'-5'-oligoadenylate synthetase 2) showed CDH1-null / parental viability ratio 0.88; CDH1-null viability vs mock (fraction of mock) = 0.72.
CDK12 (cyclin dependent kinase 12) scored CDH1-null / parental viability ratio 0.76; CDH1-null viability vs mock (fraction of mock) = 0.62.
For NUDT11 (nudix hydrolase 11) the deposit lists CDH1-null / parental viability ratio 1.61; CDH1-null viability vs mock (fraction of mock) = 0.66.
With knock-down of MS4A1 (membrane spanning 4-domains A1), the screen gave CDH1-null / parental viability ratio 1.03; CDH1-null viability vs mock (fraction of mock) = 0.68.
Silencing of TREML4 (triggering receptor expressed on myeloid cells like 4) came out at: CDH1-null / parental viability ratio 1.1; CDH1-null viability vs mock (fraction of mock) = 0.68.
With knock-down of UBR4 (ubiquitin protein ligase E3 component n-recognin 4), the record shows CDH1-null / parental viability ratio 1.09; CDH1-null viability vs mock (fraction of mock) = 0.95.
After knock-down of FIRRM (FIGNL1 interacting regulator of recombination and mitosis) the results were CDH1-null / parental viability ratio 0.86; CDH1-null viability vs mock (fraction of mock) = 0.51.
UFSP2 (UFM1 specific peptidase 2) scored CDH1-null / parental viability ratio 0.85; CDH1-null viability vs mock (fraction of mock) = 0.84.
Knock-down of CHST10 (carbohydrate sulfotransferase 10) came out at: CDH1-null / parental viability ratio 0.81; CDH1-null viability vs mock (fraction of mock) = 0.72.
Knock-down of CARMIL3 (capping protein regulator and myosin 1 linker 3) came out at: CDH1-null / parental viability ratio 0.98; CDH1-null viability vs mock (fraction of mock) = 0.44.
For DLX1 (distal-less homeobox 1), the entry reads CDH1-null / parental viability ratio 0.72; CDH1-null viability vs mock (fraction of mock) = 0.42.
SPMIP3 (sperm microtubule inner protein 3) scored CDH1-null / parental viability ratio 1.44; CDH1-null viability vs mock (fraction of mock) = 0.52.
ANKH (ANKH inorganic pyrophosphate transport regulator) scored CDH1-null / parental viability ratio 0.87; CDH1-null viability vs mock (fraction of mock) = 0.8.
With knock-down of TMEM102 (transmembrane protein 102) the results were CDH1-null / parental viability ratio 1.09; CDH1-null viability vs mock (fraction of mock) = 1.

Records listed so far whose target name begins with T or t (2):
TREML4 (triggering receptor expressed on myeloid cells like 4) — CDH1-null / parental viability ratio = 1.1; CDH1-null viability vs mock (fraction of mock) = 0.68
TMEM102 (transmembrane protein 102) — CDH1-null / parental viability ratio = 1.09; CDH1-null viability vs mock (fraction of mock) = 1
